The text below walks through data of PMC8017763.

Results are given in words; binding and its absence hold for the method and conditions named. Binding seen in cells or lysates may run through a third protein. Some results given as binding are weak or reduced against the parent protein; the word gives no strength.

The target in this experiment is T1, Beclin-1 (mouse (endogenous in peritoneal macrophages)), O88597.
T1 chain: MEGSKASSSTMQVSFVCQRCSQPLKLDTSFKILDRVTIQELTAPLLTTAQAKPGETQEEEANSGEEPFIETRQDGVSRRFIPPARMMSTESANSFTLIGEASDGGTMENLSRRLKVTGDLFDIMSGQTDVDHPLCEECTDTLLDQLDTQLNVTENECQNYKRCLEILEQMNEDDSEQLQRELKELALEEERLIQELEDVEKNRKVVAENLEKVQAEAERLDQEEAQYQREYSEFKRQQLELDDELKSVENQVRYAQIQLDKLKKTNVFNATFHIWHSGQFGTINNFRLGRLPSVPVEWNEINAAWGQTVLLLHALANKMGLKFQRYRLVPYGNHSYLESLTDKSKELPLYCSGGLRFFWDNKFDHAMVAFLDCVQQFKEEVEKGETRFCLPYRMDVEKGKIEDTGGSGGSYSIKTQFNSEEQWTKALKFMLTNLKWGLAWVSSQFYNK
Briefly: co-IP; whole cell lysates of mouse peritoneal macrophages; immunoprecipitation with Beclin-1 antibody, Western blot with Bcl-2 antibody; cells with or without ABT-263 treatment; mouse serum as negative control. To be noted: remark: other sources report otherwise.

B1: Bcl-2, P10417 1-236 (protein)
chain: MAQAGRTGYDNREIVMKYIHYKLSQRGYEWDAGDADAAPLGAAPTPGIFSFQPESNPMPAVHRDMAARTSPLRPLVATAGPALSPVPPVVHLTLRRAGDDFSRRYRRDFAEMSSQLHLTPFTARGRFATVVEELFRDGVNWGRIVAFFEFGGVMCVESVNREMSPLVDNIALWMTEYLNRHLHTWIQDNGGWDAFVELYGPSMRPLFDFSWLSLKTLLSLALVGACITLGAYLGHK
Regarding B1, the binding result is reported as “binds”.
